These are yes or no findings as the source states them, for the method shown. Some entries that bind do so weakly or less than the wild type.
Legend:
[1] = target: T1, GAL4 DNA-binding domain fused to the intracellular domain of the murine TNF-R2 (yeast; murine) (UniProt P04386+P25119); assay: yeast three-component assay with NLS-TRAF2 expressed directly; growth on trp- leu- his- medium with 20 mM 3-aminotriazole
[2] = target: T2, GAL4 DNA-binding domain fused to the intracellular domain of human TNF-R2 (yeast; human) (UniProt P04386+P20333); assay: as above
[3] = target: T1, GAL4 DNA-binding domain fused to the intracellular domain of the murine TNF-R2 (yeast; murine); assay: yeast three-component assay; the filing reads it as a heterodimeric complex of TRAF1 and TRAF2 interacting with the intracellular domain of TNF-R2
[4] = target: T2, GAL4 DNA-binding domain fused to the intracellular domain of human TNF-R2 (yeast; human); assay: as above

Chains of the proteins cited; added tags and fusions are not shown. Lines headed by an entry give the natural chain unless they say otherwise; changes in a name come on top.
UniProt P04386: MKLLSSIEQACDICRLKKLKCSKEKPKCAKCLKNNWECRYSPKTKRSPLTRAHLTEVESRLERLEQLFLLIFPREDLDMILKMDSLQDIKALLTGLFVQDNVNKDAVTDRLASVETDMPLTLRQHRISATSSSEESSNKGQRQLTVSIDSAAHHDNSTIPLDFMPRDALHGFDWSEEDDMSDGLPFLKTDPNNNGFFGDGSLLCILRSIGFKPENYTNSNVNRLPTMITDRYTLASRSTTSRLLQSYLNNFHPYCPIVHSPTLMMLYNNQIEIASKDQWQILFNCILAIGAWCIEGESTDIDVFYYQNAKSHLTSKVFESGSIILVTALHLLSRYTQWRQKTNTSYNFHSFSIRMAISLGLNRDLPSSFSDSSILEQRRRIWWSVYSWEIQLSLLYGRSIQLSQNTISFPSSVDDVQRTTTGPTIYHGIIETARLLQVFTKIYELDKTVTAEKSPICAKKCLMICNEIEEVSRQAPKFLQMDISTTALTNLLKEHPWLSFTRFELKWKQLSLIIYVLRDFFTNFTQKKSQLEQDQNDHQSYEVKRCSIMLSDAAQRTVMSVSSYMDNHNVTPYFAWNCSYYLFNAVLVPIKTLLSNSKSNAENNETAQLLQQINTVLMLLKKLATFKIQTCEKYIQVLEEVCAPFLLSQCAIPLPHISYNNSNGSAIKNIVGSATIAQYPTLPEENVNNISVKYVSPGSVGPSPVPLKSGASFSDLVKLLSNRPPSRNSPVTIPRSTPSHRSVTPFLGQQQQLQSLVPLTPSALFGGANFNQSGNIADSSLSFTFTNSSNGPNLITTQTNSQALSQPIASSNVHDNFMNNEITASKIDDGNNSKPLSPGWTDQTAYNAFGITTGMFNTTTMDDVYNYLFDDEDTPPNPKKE
UniProt P25119: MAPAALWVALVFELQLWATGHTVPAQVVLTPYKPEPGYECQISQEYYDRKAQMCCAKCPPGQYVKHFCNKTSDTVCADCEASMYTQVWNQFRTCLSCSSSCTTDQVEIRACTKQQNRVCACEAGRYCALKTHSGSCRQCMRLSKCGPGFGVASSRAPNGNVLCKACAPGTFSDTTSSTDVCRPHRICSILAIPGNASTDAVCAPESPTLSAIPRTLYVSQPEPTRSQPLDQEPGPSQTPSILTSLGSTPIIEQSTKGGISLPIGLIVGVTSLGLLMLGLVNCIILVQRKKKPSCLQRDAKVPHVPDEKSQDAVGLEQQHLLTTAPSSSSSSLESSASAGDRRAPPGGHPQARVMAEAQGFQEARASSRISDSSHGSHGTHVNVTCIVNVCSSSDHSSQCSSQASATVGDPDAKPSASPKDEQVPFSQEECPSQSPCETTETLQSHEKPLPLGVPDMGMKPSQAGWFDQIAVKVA
UniProt P20333: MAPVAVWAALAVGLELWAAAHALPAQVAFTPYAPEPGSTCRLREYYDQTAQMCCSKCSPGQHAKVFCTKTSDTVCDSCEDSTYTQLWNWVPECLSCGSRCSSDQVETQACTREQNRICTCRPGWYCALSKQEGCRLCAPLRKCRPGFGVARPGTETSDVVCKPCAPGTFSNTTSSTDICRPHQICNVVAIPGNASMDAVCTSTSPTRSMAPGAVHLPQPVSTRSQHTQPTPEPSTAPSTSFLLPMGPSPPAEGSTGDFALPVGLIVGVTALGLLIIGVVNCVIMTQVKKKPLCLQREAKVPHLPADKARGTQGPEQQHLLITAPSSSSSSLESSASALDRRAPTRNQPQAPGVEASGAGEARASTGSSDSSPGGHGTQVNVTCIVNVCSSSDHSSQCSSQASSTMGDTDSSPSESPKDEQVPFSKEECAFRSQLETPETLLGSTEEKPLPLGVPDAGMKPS

Measured: binding

B1: GAL4(TA)-TRAF1 co-expressed with NLS-TRAF2 (heterodimeric complex of TRAF1 and TRAF2) (protein, not shown: large carriers)
chain 1: ASSSAPDENEFQFGCPPAPCQDPSEPRVLCCTACLSENLRDDEDRICPKCRADNLHPVSPGSPLTQEKVHSDVAEAEIMCPFAGVGCSFKGSPQSMQEHEATSQSSHLYLLLAVLKEWKSSPGSNLGSAPMALERNLSELQLQAAVEATGDLEVDCYRAPCCESQEELALQHLVKEKLLAQLEEKLRVFANIVAVLNKEVEASHLALAASIHQSQLDREHLLSLEQRVVELQQTLAQKDQVLGKLEHSLRLMEEASFDGTFLWKITNVTKRCHESVCGRTVSLFSPAFYTAKYGYKLCLRLYLNGDGSGKKTHLSLFIVIMRGEYDALLPWPFRNKVTFMLLDQNNREHAIDAFRPDLSSASFQRPQSETNVASGCPLFFPLSKLQSPKHAYVKDDTMFLKCIVDTSA
chain 2: MPKKKRKVAAASVTSPGSLELLQPGFSKTLLGTRLEAKYLCSACKNILRRPFQAQCGHRYCSFCLTSILSSGPQNCAACVYEGLYEEGISILESSSAFPDNAARREVESLPAVCPNDGCTWKGTLKEYESCHEGLCPFLLTECPACKGLVRLSEKEHHTEQECPKRSLSCQHCRAPCSHVDLEVHYEVCPKFPLTCDGCGKKKIPRETFQDHVRACSKCRVLCRFHTVGCSEMVETENLQDHELQRLREHLALLLSSFLEAQASPGTLNQVGPELLQRCQILEQKIATFENIVCVLNREVERVAVTAEACSRQHRLDQDKIEALSNKVQQLERSIGLKDLAMADLEQKVSELEVSTYDGVFIWKISDFTRKRQEAVAGRTPAIFSPAFYTSRYGYKMCLRVYLNGDGTGRGTHLSLFFVVMKGPNDALLQWPFNQKVTLMLLDHNNREHVIDAFRPDVTSSSFQRPVSDMNIASGCPLFCPVSKMEAKNSYVRDDAIFIKAIVDLTGL
binds: all assays above
